In patent US20250283871A1, “COMPOSITIONS AND METHODS FOR MODULATING THE INTERACTION BETWEEN SS18-SSX FUSION ONCOPROTEIN AND NUCLEOSOMES” (Dana-Farber Cancer Institute, Inc., priority 2020, published 2025):

System: BAF complex subunits and histone proteins
Assay: Mass spectrometry proteomics of purified HA-SS18 WT and HA-SS18-SSX1 complexes (Tables 5A-5E)
Design: species or system human
Conditions: for Total / Unique: HA-SS18SSX1_CHR_peptides; for Total: total peptides of the identified protein; for Unique: unique peptides of the identified protein
[1] = HA-SS18WT_CHR_peptides: protein identified in HA-SS18 WT BAF complex purification from nuclease-treated solubilized chromatin (CHR), HEK-293T
[2] = HA-SS18SSX1_NE_peptides: protein co-purified with HA-SS18-SSX1 BAF complexes from soluble nuclear extract (NE), HEK-293T cells
[3] = HA-SS18WT_NE_peptides: proteins co-purified with HA-SS18 WT from nuclear extract (NE), HEK-293T
[4] = HA-SS18SSX1_CHR_peptides: protein identified in the HA-SS18-SSX1 purification from solubilized chromatin (CHR), HEK-293T
[5] = HA-SS18SSX1 purification, NE (soluble nuclear extract) fraction, HEK-293T, peptides per identified protein
[6] = HA-SS18WT_CHR_peptides: HA-SS18 WT purification from nuclease-treated solubilized chromatin (CHR), HEK-293T, label = protein identified
[7] = HA-SS18WT_NE_peptides: HA-SS18 WT complexes purified from nuclear extract (NE), HEK-293T, label = protein identified (Gene Symbol)

Row | Molecule | Total | Unique | Total (total peptides) [1] | Unique (unique peptides) [1] | Total (peptides) [2] | Unique (peptides) [2] | Total (peptides) [3] | Unique (peptides) [3] | Total (total peptides) [4] | Unique (unique peptides) [4] | Total (total peptides) [5] | Unique (unique peptides) [5] | Total (peptides) [6] | Unique (peptides) [6] | Total (peptides) [7] | Unique (peptides) [7]
1 | SRSF12 (protein, UniProt Q8WXF0 1-261, looked up) Serine/arginine-rich splicing …: MSRYTRPPNTSLFIRNVADATRPEDLRREFGRYGPIVDVYIPLDFYTRRPRGFAYVQFEDVRDAEDALYNLNRKWVCGRQIEIQFAQGDRKTPGQMKSKERHPCSPSDHRRSRSPSQRRTRSRSSSWGRNRRRSDSLKESRHRRFSYSQSKSRSKSLPRRSTSARQSRTPRRNFGSRGRSRSKSLQKRSKSIGKSQSSSPQKQTSSGTKSRSHGRHSDSIARSPCKSPKGYTNSETKVQTAKHSHFRSHSRSRSYRHKNSW | 3 | 3 | 2 | 2 |  |  |  |  |  |  |  |  |  |  |  | 
2 | HELLS (protein, UniProt Q9NRZ9 1-838, looked up) Lymphoid-specific helicase: MPAERPAGSGGSEAPAMVEQLDTAVITPAMLEEEEQLEAAGLERERKMLEKARMSWDRESTEIRYRRLQHLLEKSNIYSKFLLTKMEQQQLEEQKKKEKLERKKESLKVKKGKNSIDASEEKPVMRKKRGREDESYNISEVMSKEEILSVAKKNKKENEDENSSSTNLCVEDLQKNKDSNSIIKDRLSETVRQNTKFFFDPVRKCNGQPVPFQQPKHFTGGVMRWYQVEGMEWLRMLWENGINGILADEMGLGKTVQCIATIALMIQRGVPGPFLVCGPLSTLPNWMAEFKRFTPDIPTMLYHGTQEERQKLVRNIYKRKGTLQIHPVVITSFEIAMRDRNALQHCYWKYLIVDEGHRIKNMKCRLIRELKRFNADNKLLLTGTPLQNNLSELWSLLNFLLPDVFDDLKSFESWFDITSLSETAEDIIAKEREQNVLHMLHQILTPFLLRRLKSDVALEVPPKREVVVYAPLSKKQEIFYTAIVNRTIANMFGSSEKETIELSPTGRPKRRTRKSINYSKIDDFPNELEKLISQIQPEVDRERAVVEVNIPVESEVNLKLQNIMMLLRKCCNHPYLIEYPIDPVTQEFKIDEELVTNSGKFLILDRMLPELKKRGHKVLLFSQMTSMLDILMDYCHLRDFNFSRLDGSMSYSEREKNMHSFNTDPEVFIFLVSTRAGGLGINLTAADTVIIYDSDWNPQSDLQAQDRCHRIGQTKPVVVYRLVTANTIDQKIVERAAAKRKLEKLIIHKNHFKGGQSGLNLSKNFLDPKELMELLKSRDYEREIKGSREKVISDKDLELLLDRSDLIDQMNASGPIKEKMGIFKILENSEDSSPECLF | 3 | 3 | 1 | 1 | 2 | 2 | 2 | 2 |  |  |  |  |  |  |  | 
3 | HNRNPM (protein, UniProt P52272 2-730, looked up) Heterogeneous nuclear …: AAGVEAAAEVAATEIKMEEESGAPGVPSGNGAPGPKGEGERPAQNEKRKEKNIKRGGNRFEPYANPTKRYRAFITNIPFDVKWQSLKDLVKEKVGEVTYVELLMDAEGKSRGCAVVEFKMEESMKKAAEVLNKHSLSGRPLKVKEDPDGEHARRAMQKVMATTGGMGMGPGGPGMITIPPSILNNPNIPNEIIHALQAGRLGSTVFVANLDYKVGWKKLKEVFSMAGVVVRADILEDKDGKSRGIGTVTFEQSIEAVQAISMFNGQLLFDRPMHVKMDERALPKGDFFPPERPQQLPHGLGGIGMGLGPGGQPIDANHLNKGIGMGNIGPAGMGMEGIGFGINKMGGMEGPFGGGMENMGRFGSGMNMGRINEILSNALKRGEIIAKQGGGGGGGSVPGIERMGPGIDRLGGAGMERMGAGLGHGMDRVGSEIERMGLVMDRMGSVERMGSGIERMGPLGLDHMASSIERMGQTMERIGSGVERMGAGMGFGLERMAAPIDRVGQTIERMGSGVERMGPAIERMGLSMERMVPAGMGAGLERMGPVMDRMATGLERMGANNLERMGLERMGANSLERMGLERMGANSLERMGPAMGPALGAGIERMGLAMGGGGGASFDRAIEMERGNFGGSFAGSFGGAGGHAPGVARKACQIFVRNLPFDFTWKMLKDKFNECGHVLYADIKMENGKSKGCGVVKFESPEVAERACRMMNGMKLSGREIDVRIDRNA |  |  |  |  |  |  |  |  | 38 | 24 | 30 | 15 | 27 | 15 | 29 | 20
4 | TCOF1 (protein, UniProt Q13428 1-1488, looked up) Treacle protein: MAEARKRRELLPLIYHHLLRAGYVRAAREVKEQSGQKCFLAQPVTLLDIYTHWQQTSELGRKRKAEEDAALQAKKTRVSDPISTSESSEEEEEAEAETAKATPRLASTNSSVLGADLPSSMKEKAKAETEKAGKTGNSMPHPATGKTVANLLSGKSPRKSAEPSANTTLVSETEEEGSVPAFGAAAKPGMVSAGQADSSSEDTSSSSDETDVEGKPSVKPAQVKASSVSTKESPARKAAPAPGKVGDVTPQVKGGALPPAKRAKKPEEESESSEEGSESEEEAPAGTRSQVKASEKILQVRAASAPAKGTPGKGATPAPPGKAGAVASQTKAGKPEEDSESSSEESSDSEEETPAAKALLQAKASGKTSQVGAASAPAKESPRKGAAPAPPGKTGPAVAKAQAGKREEDSQSSSEESDSEEEAPAQAKPSGKAPQVRAASAPAKESPRKGAAPAPPRKTGPAAAQVQVGKQEEDSRSSSEESDSDREALAAMNAAQVKPLGKSPQVKPASTMGMGPLGKGAGPVPPGKVGPATPSAQVGKWEEDSESSSEESSDSSDGEVPTAVAPAQEKSLGNILQAKPTSSPAKGPPQKAGPVAVQVKAEKPMDNSESSEESSDSADSEEAPAAMTAAQAKPALKIPQTKACPKKTNTTASAKVAPVRVGTQAPRKAGTATSPAGSSPAVAGGTQRPAEDSSSSEESDSEEEKTGLAVTVGQAKSVGKGLQVKAASVPVKGSLGQGTAPVLPGKTGPTVTQVKAEKQEDSESSEEESDSEEAAASPAQVKTSVKKTQAKANPAAARAPSAKGTISAPGKVVTAAAQAKQRSPSKVKPPVRNPQNSTVLARGPASVPSVGKAVATAAQAQTGPEEDSGSSEEESDSEEEAETLAQVKPSGKTHQIRAALAPAKESPRKGAAPTPPGKTGPSAAQAGKQDDSGSSSEESDSDGEAPAAVTSAQVIKPPLIFVDPNRSPAGPAATPAQAQAASTPRKARASESTARSSSSESEDEDVIPATQCLTPGIRTNVVTMPTAHPRIAPKASMAGASSSKESSRISDGKKQEGPATQVSKKNPASLPLTQAALKVLAQKASEAQPPVARTQPSSGVDSAVGTLPATSPQSTSVQAKGTNKLRKPKLPEVQQATKAPESSDDSEDSSDSSSGSEEDGEGPQGAKSAHTLGPTPSRTETLVEETAAESSEDDVVAPSQSLLSGYMTPGLTPANSQASKATPKLDSSPSVSSTLAAKDDPDGKQEAKPQQAAGMLSPKTGGKEAASGTTPQKSRKPKKGAGNPQASTLALQSNITQCLLGQPWPLNEAQVQASVVKVLTELLEQERKKVVDTTKESSRKGWESRKRKLSGDQPAARTPRSKKKKKLGAGEGGEASVSPEKTSTTSKGKAKRDKASGDVKEKKGKGSLGSQGAKDEPEEELQKGMGTVEGGDQSNPKSKKEKKKSDKRKKDKEKKEKKKKAKKASTKDSESPSQKKKKKKKKTAEQTV | 3 | 3 |  |  | 2 | 2 |  |  |  |  |  |  |  |  |  | 
